From PMC11449006

How the values were obtained:
[1] = target: nYFP-CEPA1 (Arabidopsis thaliana); assay: split reporter; BiFC (MoBiFC vectors): nYFP (V2-D174) fused to mature CEPA1 and cYFP (G175-K239) fused to the mature candidates, AtRBCS cTP upstream; N. benthamiana leaves infiltrated with Agrobacterium, protoplasts after 3 d, confocal microscopy
[2] = target: CEPA1-nYFP (Arabidopsis thaliana); assay: as above

Binder | binding [1] | binding [2]
PSA3-cYFP (protein, UniProt Q9M3C6 46-277) AYIEKPNSFSTFANKVIGSLPVIGLLARIISDEGGVGRDLVDFAEFRKRVGNKCTPDDSRAFYEFQQRRGKAGEPLYVLLCCWVAAVGAGLLKSEEILEGVTRVSISNDLEFEEQNFIALMTEARQRRAKLNIDAPTIPMELRVEKALEGIYACCFRRGLIEEEDEKLLKVMLIAVFPSVEKSEIERIIKEKATRVEEGGEEENVMAKRLPKEAIQMQMKDLEFLQQQNIES | binds | 
PPD1-cYFP (protein, UniProt O23403 105-287) STPVFREYIDTFDGYSFKYPQNWIQVRGAGADIFFRDPVVLDENLSVEFSSPSSSNYTSLEDLGSPEEVGKRVLRQYLTEFMSTRLGVKRQANILSTSSRVADDGKLYYQVEVNIKSYANNNELAVMPQDRVARLEWNRRYLAVLGVENDRLYSIRLQTPEKVFLEEEKDLRRVMDSFRVEKI |  | no binding

No constants are given. Whether binding was seen depends on the method and setting. Binding seen in cells or lysates may run through a third protein. For some assays here: Binding calls can cover weak binding; strength is not graded here. Sequences can lack the tags named with a protein.
